These are yes or no findings as the source states them, for the method shown. Binding seen in cells or lysates may run through a third protein. Some entries that bind do so weakly or less than the wild type. For part of these data: Where a sequence is shown, tags or fusion partners need not be part of it.

Amino acid sequences for entries named in this document (tags omitted).
UniProt Q92786: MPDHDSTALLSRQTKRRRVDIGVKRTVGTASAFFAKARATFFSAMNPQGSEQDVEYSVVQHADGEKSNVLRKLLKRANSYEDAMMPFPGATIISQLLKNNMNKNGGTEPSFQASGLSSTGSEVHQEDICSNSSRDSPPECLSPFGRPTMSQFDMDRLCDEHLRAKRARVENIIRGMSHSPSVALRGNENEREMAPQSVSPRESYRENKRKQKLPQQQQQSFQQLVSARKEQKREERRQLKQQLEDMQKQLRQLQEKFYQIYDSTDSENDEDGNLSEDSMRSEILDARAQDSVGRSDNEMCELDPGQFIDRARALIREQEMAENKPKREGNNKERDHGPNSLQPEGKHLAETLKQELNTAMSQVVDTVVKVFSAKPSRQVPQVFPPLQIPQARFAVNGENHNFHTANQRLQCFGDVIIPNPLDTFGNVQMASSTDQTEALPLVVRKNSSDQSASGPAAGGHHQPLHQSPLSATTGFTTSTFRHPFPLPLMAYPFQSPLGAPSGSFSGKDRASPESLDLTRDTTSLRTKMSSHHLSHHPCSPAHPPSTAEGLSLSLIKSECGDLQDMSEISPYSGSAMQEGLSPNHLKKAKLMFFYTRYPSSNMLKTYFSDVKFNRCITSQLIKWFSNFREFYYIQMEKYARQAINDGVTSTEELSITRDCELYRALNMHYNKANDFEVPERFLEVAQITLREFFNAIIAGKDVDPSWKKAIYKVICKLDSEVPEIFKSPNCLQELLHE

The target of assay [1] is T1, GST-NAA10 (UniProt P41227).
T1 sequence: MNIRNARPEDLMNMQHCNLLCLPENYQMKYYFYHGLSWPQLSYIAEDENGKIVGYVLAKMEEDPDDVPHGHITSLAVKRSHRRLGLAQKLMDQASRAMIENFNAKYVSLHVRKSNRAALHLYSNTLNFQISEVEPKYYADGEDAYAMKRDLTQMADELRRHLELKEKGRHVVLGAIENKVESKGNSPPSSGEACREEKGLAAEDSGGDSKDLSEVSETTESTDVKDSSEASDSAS
The assay is described as follows: pull-down; GST-pulldown assay: GST-NAA10 as bait, Flag-PROX1 as prey.

The target of assay [2] is T2, N-α-acetyltransferase 10 (NAA10), endogenous in HLECs (human (endogenous in HLECs)) (UniProt P41227).
T2 sequence: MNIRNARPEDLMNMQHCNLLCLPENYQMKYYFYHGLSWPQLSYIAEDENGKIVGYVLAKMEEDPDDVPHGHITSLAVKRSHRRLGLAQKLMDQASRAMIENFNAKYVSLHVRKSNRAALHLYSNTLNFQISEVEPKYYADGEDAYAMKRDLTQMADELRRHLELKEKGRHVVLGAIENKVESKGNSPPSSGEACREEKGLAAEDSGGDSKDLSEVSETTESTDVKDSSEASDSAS
The experiment in a line: co-IP; endogenous proteins in HLECs; precipitated with NAA10 antibody or with PROX1 antibody, detected by western blot; repeated with circ_0026611 overexpression (Fig. 6D). A general note: In western blotting, separated proteins are transferred to a membrane and probed.

Assay [3] addresses prospero homeobox 1 (PROX1), endogenous in HLECs (human (endogenous in HLECs)) (UniProt Q92786). Described as above.

Regarding Flag-PROX1 (from UniProt Q92786 1-737), the binding entry in assay [1] is reported as “binds”.
Regarding “prospero homeobox 1 (PROX1), endogenous in HLECs (from UniProt Q92786 1-737)”, the binding result in assay [2] is on record as “binds”.

B1: N-α-acetyltransferase 10 (NAA10), endogenous in HLECs (enzyme, UniProt P41227 1-235)
chain: MNIRNARPEDLMNMQHCNLLCLPENYQMKYYFYHGLSWPQLSYIAEDENGKIVGYVLAKMEEDPDDVPHGHITSLAVKRSHRRLGLAQKLMDQASRAMIENFNAKYVSLHVRKSNRAALHLYSNTLNFQISEVEPKYYADGEDAYAMKRDLTQMADELRRHLELKEKGRHVVLGAIENKVESKGNSPPSSGEACREEKGLAAEDSGGDSKDLSEVSETTESTDVKDSSEASDSAS
Consider B1, for which, in assay [3], the binding entry is “binds”.
